Measured values reported in publication PMC5450235, “Predicting the targeting of tail-anchored proteins to subcellular compartments in mammalian cells” (Journal of Cell Science, 2017).
Changes are numbered by the printed parent chain. These are yes or no findings as the source states them, for the method shown.

What was measured:
Experiment in all cases: fluorescence polarisation; fluorescence anisotropy; FITC peptide at 6.7 nM, protein titrated (dilution series, factor 1.5); 25°C; 50 mM Tris-HCl pH 7.5, 250 mM NaCl, 0.5 mM TCEP with 0.67 mg/ml BSA, no detergent; 1:1 hyperbolic fit; both purified
[1] = target: T1, FITC-labelled peptide ACBD5 MUT1 (not stated (human genes cloned from HepG2 RNA))
T1 sequence (peptide, FITC on the N-terminus): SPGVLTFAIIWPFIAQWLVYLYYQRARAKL

[2] = target: T2, FITC-labelled peptide ACBD5 MUT2 (not stated (human genes cloned from HepG2 RNA))
T2 sequence (peptide, FITC on the N-terminus): T1 sequence (peptide, FITC on the N-terminus) with R25A, R27A

[3] = target: T3, FITC-labelled peptide ACBD5 WT (not stated (human genes cloned from HepG2 RNA))
T3 sequence (peptide, FITC on the N-terminus): T1 sequence (peptide, FITC on the N-terminus) with A26R, A28R

Measured: binding

SurE
no binding: all assays above
